Entries after “also recorded” stand apart in the source; their conditions may differ.
Test system: 1,25(OH)2D3
Test: Determination of serum 1,25(OH)2D3 content
Type: in vivo, Balb/c mice
Conditions: normal animal+monotropein group vs blank group

SMILES: O=C(O)C1=CO[C@@H](O[C@@H]2O[C@H](CO)[C@@H](O)[C@H](O)[C@H]2O)[C@H]2[C@@H]1C=C[C@]2(O)CO [monotropein]
- serum level of 1,25(OH)2D3 (endogenous VD3) in normal animals: no secretory effect; also recorded: down-regulated in the animals of the blank group, but there was no statistical difference
